Test results from paper PMC7401805, “Tissue specific requirement of Drosophila Rcd4 for centriole duplication and ciliogenesis” (The Journal of Cell Biology, 2020).
Results are given in words; binding and its absence hold for the method and conditions named. Binding seen in cells or lysates may run through a third protein. Some results given as binding are weak or reduced against the parent protein; the word gives no strength. Sequences can lack the tags named with a protein.

What was measured:
[1] = target: T1, GST-tagged full-length Ana3 (Drosophila melanogaster, UniProt A1Z8X3 1-1977); test: pull-down; GST-Ana3 constructs and 6xHis-Rcd4 coexpressed in S. cerevisiae; GST-Ana3 purified from crude extract on glutathione beads (50 mM Tris pH 7.5, 250 mM NaCl, 0.2% NP-40, 5 mM DTT), eluted with 20 mM glutathione; anti-6xHis Western blot
T1 construct: Ana3, Drosophila melanogaster; also called GST::Ana3; GST-Ana3; source: S. cerevisiae (plasmid pMG1): coexpressed with 6xHis-Rcd4, in crude extract; also expressed alone and purified on glutathione beads

[2] = target: T2, GST-tagged Ana3-C1 fragment (amino acids 1195-1977), yeast (Drosophila melanogaster) (UniProt A1Z8X3); test: as above
T2 sequence: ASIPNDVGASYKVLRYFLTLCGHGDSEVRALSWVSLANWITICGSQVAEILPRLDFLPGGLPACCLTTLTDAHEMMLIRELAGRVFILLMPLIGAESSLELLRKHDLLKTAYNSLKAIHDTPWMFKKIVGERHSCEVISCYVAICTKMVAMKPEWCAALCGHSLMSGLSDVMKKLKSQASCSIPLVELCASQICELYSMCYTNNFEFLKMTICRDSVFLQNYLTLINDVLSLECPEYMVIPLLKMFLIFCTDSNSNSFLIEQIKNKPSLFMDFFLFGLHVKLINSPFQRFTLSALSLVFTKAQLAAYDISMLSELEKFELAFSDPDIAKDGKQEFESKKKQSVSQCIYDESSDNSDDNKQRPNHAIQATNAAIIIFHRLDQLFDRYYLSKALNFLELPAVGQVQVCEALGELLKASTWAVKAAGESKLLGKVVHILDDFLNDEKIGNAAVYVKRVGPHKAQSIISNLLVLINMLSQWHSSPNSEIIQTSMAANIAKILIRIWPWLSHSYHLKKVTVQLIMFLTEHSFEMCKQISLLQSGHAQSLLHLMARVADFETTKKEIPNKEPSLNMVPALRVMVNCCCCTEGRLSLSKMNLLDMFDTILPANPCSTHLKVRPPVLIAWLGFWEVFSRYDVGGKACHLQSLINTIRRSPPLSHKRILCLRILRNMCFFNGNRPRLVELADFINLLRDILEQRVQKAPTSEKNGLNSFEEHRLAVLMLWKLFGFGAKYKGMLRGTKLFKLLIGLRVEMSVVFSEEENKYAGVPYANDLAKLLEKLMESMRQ

binding [1]: binds | binding [2]: binds
B1: 6xHis-tagged Rcd4 (protein, UniProt Q9VLM6 1-199)
chain: MPHKRRNRVHANQRNFTARRVSVAKLSSAPPNVLVESCNGSHADNSSPDSPKAKEGAMTNGKNPEIKLAVPKCNTTVRKQNEAHIISNIKLDMNLNKDSNFIAPQITKKMNFAPNRVVFGVLVPLNVNDSVLVPHNRKPDALKHTSKESESCKAISEPQLADYAEKVDPMIMAVKEPVLHLDWEPGPFDFFGAYRRTYN
